The source of these data is US8101647B2, “Spiro-oxindole compounds and their use as therapeutic agents” (Xenon Pharmaceuticals Inc., priority 2008, dated 2012).

By UniProt entry, the sequences of proteins in these tests, tags left out.
UniProt P10635, whole entry: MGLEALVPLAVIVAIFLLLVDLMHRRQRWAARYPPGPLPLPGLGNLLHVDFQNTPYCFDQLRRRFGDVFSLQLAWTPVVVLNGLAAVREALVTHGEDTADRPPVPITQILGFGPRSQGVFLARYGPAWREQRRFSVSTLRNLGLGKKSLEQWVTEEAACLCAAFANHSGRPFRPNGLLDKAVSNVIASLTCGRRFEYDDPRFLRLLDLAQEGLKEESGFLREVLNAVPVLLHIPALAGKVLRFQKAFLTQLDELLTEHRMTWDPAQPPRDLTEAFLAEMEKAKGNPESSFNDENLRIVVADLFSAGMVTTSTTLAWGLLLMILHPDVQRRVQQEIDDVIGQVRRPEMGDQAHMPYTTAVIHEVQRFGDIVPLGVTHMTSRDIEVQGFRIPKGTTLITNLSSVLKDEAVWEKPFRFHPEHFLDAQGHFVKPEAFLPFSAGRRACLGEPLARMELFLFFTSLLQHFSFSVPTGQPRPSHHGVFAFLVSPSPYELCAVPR

Structures are written as SMILES.

The data set concerns the target CYP2D6 (Homo sapiens, UniProt P10635). An excerpt:
Each family consists of one or more subfamilies and each subfamily contains one or more specific CYP isoforms. […] The assay is based on the CYP inhibition kit described by Vivid CYP450 Screening Kit Protocol, 2005, Invitrogen Corporation (Invitrogen Corporation, 1600 Faraday Avenue, Carlsbad, Calif. 92008, USA).
This assay is designed to assess compounds by quantifying the inhibition of the predominant human CYP isozymes involved in hepatic drug metabolism.
This assay can be used for single concentration screening or for IC50 determination. In a single concentration screening assay, the final assay concentration of the test compound is 10 μM. In an IC50 determination assay, IC50 may be determined using a 3, 6, or 12 point curve in triplicate with a chosen starting concentration diluted serially.

Take `C=C[C@H]1C[N@@]2CC[C@H]1C[C@@H]2[C@@H](O)c1ccnc2ccc(OC)cc12` [Quinidine]: the “% Inhibition in 10 μM assay” value was 55 +/− 15%.
